Here are results for 2 molecules from publication PMC8298518.

By UniProt entry, the sequences of proteins in these tests, tags left out. Where a name states a change or a piece, a line headed by the entry shows the natural chain unless it says otherwise.
UniProt Q07820: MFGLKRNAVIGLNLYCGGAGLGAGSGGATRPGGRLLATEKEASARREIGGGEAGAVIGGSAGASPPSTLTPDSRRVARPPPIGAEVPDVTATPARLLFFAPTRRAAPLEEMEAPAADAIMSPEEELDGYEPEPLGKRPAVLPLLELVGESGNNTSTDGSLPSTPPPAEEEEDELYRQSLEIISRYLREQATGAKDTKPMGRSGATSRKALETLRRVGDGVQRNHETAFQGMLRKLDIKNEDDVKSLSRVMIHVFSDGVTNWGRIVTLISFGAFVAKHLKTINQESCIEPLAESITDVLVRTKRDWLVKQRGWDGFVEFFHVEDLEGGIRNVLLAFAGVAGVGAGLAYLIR

One test has as its target T1, HA-GBP2 (human) (UniProt P32456).
T1 sequence: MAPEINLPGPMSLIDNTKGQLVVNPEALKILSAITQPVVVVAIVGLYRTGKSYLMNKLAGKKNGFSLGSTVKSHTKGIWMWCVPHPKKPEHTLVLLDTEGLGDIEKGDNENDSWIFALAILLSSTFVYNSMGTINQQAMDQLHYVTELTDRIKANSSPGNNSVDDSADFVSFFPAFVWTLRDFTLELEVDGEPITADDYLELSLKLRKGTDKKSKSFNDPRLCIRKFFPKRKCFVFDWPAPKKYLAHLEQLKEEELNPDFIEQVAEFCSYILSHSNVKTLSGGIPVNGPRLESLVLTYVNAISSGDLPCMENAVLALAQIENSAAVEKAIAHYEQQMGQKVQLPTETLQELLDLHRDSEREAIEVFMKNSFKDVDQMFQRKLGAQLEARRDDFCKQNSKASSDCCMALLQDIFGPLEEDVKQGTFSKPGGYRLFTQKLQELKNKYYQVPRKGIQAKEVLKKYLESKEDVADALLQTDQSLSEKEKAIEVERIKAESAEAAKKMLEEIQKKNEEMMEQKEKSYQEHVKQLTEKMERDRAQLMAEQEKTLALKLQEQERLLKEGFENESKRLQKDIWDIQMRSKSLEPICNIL
As to the kind of experiment: co-IP; 293T cells (2 x 10^6) cotransfected for 24 h; lysates immunoprecipitated with anti-HA.

A further test has as its target T2, HA-GBP1 (UniProt P32455).
T2 sequence: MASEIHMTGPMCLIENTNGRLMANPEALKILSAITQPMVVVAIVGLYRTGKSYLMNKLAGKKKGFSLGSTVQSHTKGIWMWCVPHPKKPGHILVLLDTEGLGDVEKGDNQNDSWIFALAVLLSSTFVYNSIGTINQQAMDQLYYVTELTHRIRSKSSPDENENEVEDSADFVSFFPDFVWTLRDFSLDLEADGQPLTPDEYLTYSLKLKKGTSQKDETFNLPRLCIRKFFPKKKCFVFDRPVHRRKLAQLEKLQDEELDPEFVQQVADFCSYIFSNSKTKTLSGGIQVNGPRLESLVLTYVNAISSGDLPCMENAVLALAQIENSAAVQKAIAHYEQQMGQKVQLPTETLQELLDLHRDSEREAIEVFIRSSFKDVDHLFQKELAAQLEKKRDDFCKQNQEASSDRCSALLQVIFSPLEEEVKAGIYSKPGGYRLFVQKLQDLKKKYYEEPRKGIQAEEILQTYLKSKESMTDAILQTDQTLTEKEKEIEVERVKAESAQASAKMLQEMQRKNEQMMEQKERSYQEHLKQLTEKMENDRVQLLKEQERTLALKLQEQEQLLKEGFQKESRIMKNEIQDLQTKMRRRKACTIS
The test is described as follows: co-IP; immunoprecipitation experiments using mutants of MCL-1 and GBP1 (Supplementary Fig. 2a, b).

Test [1] deals with purified recombinant MCL-1 (human) (UniProt Q07820). As to the kind of experiment: co-IP; in vitro: purified recombinant GBP2 and MCL-1 (0.5 µg), with or without SAHBB (10 µM), immunoprecipitation and immunoblotting; both purified. Background: Immunoblotting shows a protein as a band on a membrane.

No constants are given. Whether binding was seen depends on the method and setting. Binding seen in cells or lysates may run through a third protein. For part of these data: Binding calls can cover weak binding; strength is not graded here. For part of these data: Where a sequence is shown, tags or fusion partners need not be part of it.

“MCL-1 BH3 mutant (BH3M) (from UniProt Q07820)”: the binding entry with HA-GBP2 (human) and in the test with HA-GBP1 was “no binding” throughout.

B1: purified recombinant GBP2 (protein, UniProt P32456 1-591)
chain: T1 sequence
B1: in test [1], the binding entry was “binds”.
